Results are given in words; binding and its absence hold for the method and conditions named. In cells and extracts the contact can be indirect. Binding calls can cover weak binding; strength is not graded here. Tags and fused reporters may be left off the sequences shown.
Target: FLAG-tagged vIRF3 (pCEBZ-vIRF3-SF) (Kaposi's sarcoma-associated herpesvirus)
Test: co-IP; HEK293T cells cotransfected with FLAG-tagged vIRF3 and CBD-tagged IRF4; lysis buffer 50 mM Tris, 150 mM NaCl, 5 mM EDTA, 0.2% NP-40, pH 7.4; cleared extracts incubated overnight at 4°C with anti-FLAG M2 magnetic beads or chitin resin beads; immunoblot with anti-FLAG and anti-CBD

B1: chitin-binding domain (CBD)-tagged IRF4 (pCEBZ-IRF4-CBD) (protein, UniProt Q15306 1-451)
chain: MNLEGGGRGGEFGMSAVSCGNGKLRQWLIDQIDSGKYPGLVWENEEKSIFRIPWKHAGKQDYNREEDAALFKAWALFKGKFREGIDKPDPPTWKTRLRCALNKSNDFEELVERSQLDISDPYKVYRIVPEGAKKGAKQLTLEDPQMSMSHPYTMTTPYPSLPAQQVHNYMMPPLDRSWRDYVPDQPHPEIPYQCPMTFGPRGHHWQGPACENGCQVTGTFYACAPPESQAPGVPTEPSIRSAEALAFSDCRLHICLYYREILVKELTTSSPEGCRISHGHTYDASNLDQVLFPYPEDNGQRKNIEKLLSHLERGVVLWMAPDGLYAKRLCQSRIYWDGPLALCNDRPNKLERDQTCKLFDTQQFLSELQAFAHHGRSLPRFQVTLCFGEEFPDPQRQRKLITAHVEPLLARQLYYFAQQNSGHFLRGYDLPEHISNPEDYHRSIRHSSIQE
**Q.** For B1, which binding is on record?
**A.** binds

From article PMC7448273
